Data as given in PubChem BioAssay AID1224830 (NIAID, 2016)
Here is one part, drawn at random, of about 18,000 reagents. About 2,900 of them (16%) count as active. 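Calls are made per well; low scores hint the gene aids the LPS response, high scores that it dampens it.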 Repeated entries: four replicate wells of each siRNA pool.

Purpose: 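Regulators of TLR4 signalling towards TNF-alpha in macrophage-like cells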 (primary screen)
System: human THP-1 monocytic leukaemia cells, TNF dual-luciferase reporter clone, PMA-differentiated to macrophage-like cells
Reagent: siRNA pool against human genes, 50 nM
Timing: LPS for 4 h, given about 3 days after siRNA transfection
Challenge: bacterial LPS (TLR4 ligand), 10 ng/ml
Measurement: 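TNF firefly reporter luminescence divided by renilla, normalised to the plate median, then turned into a robust z-score for each replicate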
Scale: TNF reporter robust z-score: higher = stronger TNF reporter response to LPS
Call rule: 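Each well counts as active if its z-score is over 2.8 or under -1.5; controls are left without a call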

The first 2 entries, ahead of the listing:
SLC24A5 (GeneID 283652) → TNF reporter robust z-score: -0.88; Call: inactive
SLC24A5 (GeneID 283652) → TNF reporter robust z-score: 0.67; Call: inactive

The listing, from the start:
SLC24A5 (GeneID 283652) → TNF reporter robust z-score: -0.88; Call: inactive
SLC24A5 (GeneID 283652) → TNF reporter robust z-score: 0.67; Call: inactive
SLC24A5 (GeneID 283652) → TNF reporter robust z-score: 0.16; Call: inactive
SLC24A5 (GeneID 283652) → TNF reporter robust z-score: 0.8; Call: inactive
EML5 (GeneID 161436) → TNF reporter robust z-score: -0.6; Call: inactive
EML5 (GeneID 161436) → TNF reporter robust z-score: 0.67; Call: inactive
EML5 (GeneID 161436) → TNF reporter robust z-score: 0.4; Call: inactive
EML5 (GeneID 161436) → TNF reporter robust z-score: 0.53; Call: inactive
NLRP1 (GeneID 22861) → TNF reporter robust z-score: -0.01; Call: inactive
NLRP1 (GeneID 22861) → TNF reporter robust z-score: -0.13; Call: inactive
NLRP1 (GeneID 22861) → TNF reporter robust z-score: -0.2; Call: inactive
NLRP1 (GeneID 22861) → TNF reporter robust z-score: -0.19; Call: inactive
F13B (GeneID 2165) → TNF reporter robust z-score: -0.15; Call: inactive
F13B (GeneID 2165) → TNF reporter robust z-score: -0.04; Call: inactive
F13B (GeneID 2165) → TNF reporter robust z-score: -0.25; Call: inactive
F13B (GeneID 2165) → TNF reporter robust z-score: 0.05; Call: inactive
CT47A7 (GeneID 653282) → TNF reporter robust z-score: 0.64; Call: inactive
CT47A7 (GeneID 653282) → TNF reporter robust z-score: 1.01; Call: inactive
CT47A7 (GeneID 653282) → TNF reporter robust z-score: 2.08; Call: inactive
CT47A7 (GeneID 653282) → TNF reporter robust z-score: 0.99; Call: inactive
DBI (GeneID 1622) → TNF reporter robust z-score: -0.57; Call: inactive
DBI (GeneID 1622) → TNF reporter robust z-score: -0.21; Call: inactive
DBI (GeneID 1622) → TNF reporter robust z-score: -0.68; Call: inactive
DBI (GeneID 1622) → TNF reporter robust z-score: 0.16; Call: inactive
SPATA20 (GeneID 64847) → TNF reporter robust z-score: -0.66; Call: inactive
SPATA20 (GeneID 64847) → TNF reporter robust z-score: 0.23; Call: inactive
SPATA20 (GeneID 64847) → TNF reporter robust z-score: -0.24; Call: inactive
SPATA20 (GeneID 64847) → TNF reporter robust z-score: -0.23; Call: inactive
WNK2 (GeneID 65268) → TNF reporter robust z-score: -0.28; Call: inactive
WNK2 (GeneID 65268) → TNF reporter robust z-score: 0.26; Call: inactive
WNK2 (GeneID 65268) → TNF reporter robust z-score: 1.19; Call: inactive
WNK2 (GeneID 65268) → TNF reporter robust z-score: 1.52; Call: inactive
